From the supplement of paper PMC4635364
Structures can show the parent of a compound that is named as a salt. This is one part of the list. Single values are uncertain here, since repeats match poorly.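 Cells: ReNCell VM human fetal ventral-midbrain neural progenitors, differentiated mitogen-free. Blinded raters compared doublecortin-stained (early neurons) or tyrosine hydroxylase-stained (dopaminergic neurons) images with untreated wells, where 0 means no change. After repeats and both raters were averaged, compounds scoring 2 or above became hits for retesting.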

Columns and labels:
[1] = test system: ReNCell VM; test: neuronal differentiation score (DCX+ cell fraction vs untreated, manual image score) (score (-3 to 3)); higher = more neuronal differentiation; conditions: 2 uM, 2 weeks
[2] = test system: ReNCell VM; test: dopaminergic neuron differentiation score (TH+ cell fraction vs untreated, manual image score) (score (0 to 3)); higher = more TH+ dopaminergic neuron differentiation; conditions: 2 uM, 4 weeks, BDNF 10 ng/ml + GDNF 10 ng/ml

CCC1(CC)C(=O)NC(=O)NC1=O
neuronal differentiation score ([1]; library: Spectrum): inactive: 0
dopaminergic neuron differentiation score ([2]; library: Spectrum): inactive: 0

NCCc1c[nH]c2ccccc12 [Tryptamine hydrochloride]
neuronal differentiation score ([1]; library: LOPAC): inactive: 0
dopaminergic neuron differentiation score ([2]; library: LOPAC): inactive: 0

CO[C@H]1C=C2CCN(C)[C@H]2[C@@H]2c3cc4c(cc3[C@@H](O)O[C@@H]21)OCO4 [Unsevine]
neuronal differentiation score ([1]; library: Phytochemical): inactive: 0
dopaminergic neuron differentiation score ([2]; library: Phytochemical): inactive: 0

CCCN1CC[C@@H]2c3cc(O)ccc3CC[C@@H]21 (racemic) [cis(+/-)-8-OH-PBZI hydrobromide]
neuronal differentiation score ([1]; library: LOPAC): inactive: 0
dopaminergic neuron differentiation score ([2]; library: LOPAC): inactive: 0

O=[N+]([O-])O[C@@H]1CO[C@H]2[C@@H]1OC[C@@H]2O [Isosorbide mononitrate]
neuronal differentiation score ([1]; library: Prestwick): inactive: 0
dopaminergic neuron differentiation score ([2]; library: Prestwick): inactive: 0

C[N+]1(C)[C@@H]2C[C@@H](OC(=O)[C@H](CO)c3ccccc3)C[C@H]1[C@@H]1O[C@@H]12 [(-)-Scopolamine methyl bromide]
neuronal differentiation score ([1]; library: LOPAC): inactive: 0
dopaminergic neuron differentiation score ([2]; library: LOPAC): inactive: 0

C=C(C)c1cc2cc(C(C)=O)c(O)cc2o1
neuronal differentiation score ([1]; library: Spectrum): inactive: 0
dopaminergic neuron differentiation score ([2]; library: Spectrum): inactive: 0

CN1CCC2=C[C@H](O)[C@H]3OC(=O)c4cc5c(cc4[C@H]3[C@@H]21)OCO5 [Hippeastrine hydrobromide]
neuronal differentiation score ([1]; library: Phytochemical): active: 2
dopaminergic neuron differentiation score ([2]; library: Phytochemical): inactive: 0

Cl[C@H]1[C@H](Cl)[C@@H](Cl)[C@@H](Cl)[C@H](Cl)[C@H]1Cl
neuronal differentiation score ([1]; library: Spectrum): inactive: 0
dopaminergic neuron differentiation score ([2]; library: Spectrum): inactive: 0

COc1ccc(CCN2CCC(Nc3nc4ccccc4n3Cc3ccc(F)cc3)CC2)cc1
neuronal differentiation score ([1]; library: Spectrum): inactive: 0
dopaminergic neuron differentiation score ([2]; library: Spectrum): inactive: 0

O=C(O)CF
neuronal differentiation score ([1]; library: Spectrum): inactive: 0
dopaminergic neuron differentiation score ([2]; library: Spectrum): inactive: 0

COC1=C[C@@H]2[C@@H]3Cc4ccc(OC)c(O)c4[C@]2(CCN3C)CC1=O [sinomenine]
neuronal differentiation score ([1]; library: Natural): inactive: 0
dopaminergic neuron differentiation score ([2]; library: Natural): inactive: 0

NCC(CC(=O)O)c1ccc(Cl)cc1 (stereo not given)
neuronal differentiation score ([1]; library: Spectrum): inactive: 1
dopaminergic neuron differentiation score ([2]; library: Spectrum): inactive: 0

CN1C[C@H](CO)C=C2c3cccc4[nH]cc(c34)C[C@H]21 [Lysergol]
neuronal differentiation score ([1]; library: Phytochemical): inactive: 0
dopaminergic neuron differentiation score ([2]; library: Phytochemical): inactive: 0

COc1cc(N)c(Cl)cc1C(=O)NC1CN2CCC1CC2 (stereo not given) [Zacopride hydrochloride]
neuronal differentiation score ([1]; library: Tocriscreen): inactive: 0
dopaminergic neuron differentiation score ([2]; library: Tocriscreen): inactive: 0

CC[C@@H](CO)NC(=O)[C@@H]1C=C2c3cccc4[nH]cc(c34)C[C@H]2N(C)C1 [Methylergonovine maleate]
neuronal differentiation score ([1]; library: LOPAC): inactive: 0
dopaminergic neuron differentiation score ([2]; library: LOPAC): inactive: 0

CO[C@@H]1C=C2CCN(C)[C@@H]2C2c3cc4c(cc3C(=O)OC21)OCO4 (stereo not given in full) [Ungerine nitrate]
neuronal differentiation score ([1]; library: Phytochemical): inactive: 0
dopaminergic neuron differentiation score ([2]; library: Phytochemical): inactive: 0

COc1cc2c(cc1OC)[C@H](C)NCC2
neuronal differentiation score ([1]; library: Spectrum): inactive: 0
dopaminergic neuron differentiation score ([2]; library: Spectrum): inactive: 0

Cc1onc(O)c1CC(N)C(=O)O (racemic)
neuronal differentiation score ([1]; library: Tocriscreen): inactive: 0
dopaminergic neuron differentiation score ([2]; library: Tocriscreen): inactive: 0

C[N+]1(C)CCCC(OC(=O)C(O)(c2ccccc2)c2ccccc2)C1 (stereo not given)
neuronal differentiation score ([1]; library: Spectrum): inactive: 0
dopaminergic neuron differentiation score ([2]; library: Spectrum): inactive: 0

CCOC(=O)CC(SP(=S)(OC)OC)C(=O)OCC (stereo not given)
neuronal differentiation score ([1]; library: Spectrum): inactive: 0
dopaminergic neuron differentiation score ([2]; library: Spectrum): inactive: 0

COc1ccc2[nH]cc(CCN)c2c1 [O-Methylserotonin hydrochloride]
neuronal differentiation score ([1]; library: LOPAC): inactive: 0
dopaminergic neuron differentiation score ([2]; library: LOPAC): inactive: 0

NCC(CS(=O)(=O)O)c1ccc(Cl)cc1 (stereo not given) [Saclofen]
neuronal differentiation score ([1]; library: Tocriscreen): inactive: 0
dopaminergic neuron differentiation score ([2]; library: Tocriscreen): inactive: 0

Oc1ccc(Cl)cc1
neuronal differentiation score ([1]; library: Spectrum): inactive: 0
dopaminergic neuron differentiation score ([2]; library: Spectrum): inactive: 0

C[C@H]1O[C@H](O[C@H]2[C@H](O)[C@@H](O)[C@@H](O)[C@H](O)[C@@H]2O)[C@@H](N)C[C@@H]1NC(=N)C(=O)O
neuronal differentiation score ([1]; library: Spectrum): inactive: 0
dopaminergic neuron differentiation score ([2]; library: Spectrum): inactive: 0

N[C@H](CO)Cc1ccccc1
neuronal differentiation score ([1]; library: Spectrum): inactive: 0
dopaminergic neuron differentiation score ([2]; library: Spectrum): inactive: 0

CC1Cc2cc3c(cc2C(c2ccc(N)cc2)=NN1)OCO3 (stereo not given)
neuronal differentiation score ([1]; library: LOPAC): inactive: 0
dopaminergic neuron differentiation score ([2]; library: LOPAC): inactive: 0

COc1ccc(Cc2nccc3cc(OC)c(OC)cc23)cc1OC
neuronal differentiation score ([1]; library: Spectrum): inactive: 0
dopaminergic neuron differentiation score ([2]; library: Spectrum): active: 3

Oc1ccc2c3c1O[C@H]1c4oc5ccccc5c4C[C@@]4(O)[C@@H](C2)N(CC2CC2)CC[C@]314 [Naltriben mesylate]
neuronal differentiation score ([1]; library: Tocriscreen): inactive: 0
dopaminergic neuron differentiation score ([2]; library: Tocriscreen): inactive: 0

COC[C@H]1OC(=O)c2coc3c2[C@@]1(C)C1=C(C3=O)[C@@H]2CCC(=O)[C@@]2(C)C[C@H]1OC(C)=O [Wortmannin from Penicillium funiculosum]
neuronal differentiation score ([1]; library: LOPAC): inactive: 0
dopaminergic neuron differentiation score ([2]; library: LOPAC): inactive: 0

COc1cc2c(cc1OC)[C@@H]1C(=O)c3ccc4c(c3O[C@@H]1CO2)CC(C(C)C)O4 (stereo not given in full)
neuronal differentiation score ([1]; library: Spectrum): inactive: 0
dopaminergic neuron differentiation score ([2]; library: Spectrum): inactive: 0

CN(C)C(=O)Oc1ccc[n+](C)c1
neuronal differentiation score ([1]; library: Spectrum): inactive: -1
dopaminergic neuron differentiation score ([2]; library: Spectrum): inactive: 0

CNCC(=O)c1ccc(O)c(O)c1
neuronal differentiation score ([1]; library: Spectrum): inactive: 0
dopaminergic neuron differentiation score ([2]; library: Spectrum): inactive: 0

CC(C)=CCCC1(C)C=Cc2c(O)c3c(c(CC=C(C)C)c2O1)OC12C(=CC4CC1C(C)(C)OC2(C/C=C(/C)C(=O)O)C4O)C3=O (stereo not given)
neuronal differentiation score ([1]; library: Spectrum): inactive: 0
dopaminergic neuron differentiation score ([2]; library: Spectrum): inactive: 0

NCC1(CC(=O)O)CCCCC1
neuronal differentiation score ([1]; library: Spectrum): inactive: 0
dopaminergic neuron differentiation score ([2]; library: Spectrum): inactive: 0
